{"source": "the supplement of paper PMC6411743", "experiment_in_all_cases": "NP40-soluble protein abundance relative to vehicle (solubility fold change) (ratio); higher = more soluble protein in presence of GTP", "key": {"[1]": {"target": "T1, F5H7W8 and related entries (UniProt Q96C57)", "T1 sequence (whole entry)": "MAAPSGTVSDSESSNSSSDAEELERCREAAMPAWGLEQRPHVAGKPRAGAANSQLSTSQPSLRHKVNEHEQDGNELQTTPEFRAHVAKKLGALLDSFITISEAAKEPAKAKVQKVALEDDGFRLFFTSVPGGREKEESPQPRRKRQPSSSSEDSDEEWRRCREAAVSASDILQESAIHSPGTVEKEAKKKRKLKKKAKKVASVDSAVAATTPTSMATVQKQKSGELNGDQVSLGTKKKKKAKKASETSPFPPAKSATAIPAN", "how_it_was_run": "(§1)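 Eight concentrations, 0.1 to 10 mM, were tested on Jurkat crude lysate for 10 min at room temperature and then 3 min at 37 °C, in three independent experiments. The lysate was solubilised with 0.8% NP40 and benzonase, ultracentrifuged, and the supernatant TMT-labelled for LC-MS/MS. Each value is the fold change against the detergent-processed vehicle in its own replicate, from vsn-normalised intensities.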"}, "[2]": {"target": "T2, F8VUC5 and related entries (UniProt P61923)", "T2 sequence (whole entry)": "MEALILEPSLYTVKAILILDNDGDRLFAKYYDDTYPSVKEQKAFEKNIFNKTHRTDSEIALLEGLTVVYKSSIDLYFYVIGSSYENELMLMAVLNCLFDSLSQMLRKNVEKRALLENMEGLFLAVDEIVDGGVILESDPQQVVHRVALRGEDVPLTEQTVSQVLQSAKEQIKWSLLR", "how_it_was_run": "as §1"}, "[3]": {"target": "T3, F8VXK3 and related entries (UniProt Q9NPF2)", "T3 sequence (whole entry)": "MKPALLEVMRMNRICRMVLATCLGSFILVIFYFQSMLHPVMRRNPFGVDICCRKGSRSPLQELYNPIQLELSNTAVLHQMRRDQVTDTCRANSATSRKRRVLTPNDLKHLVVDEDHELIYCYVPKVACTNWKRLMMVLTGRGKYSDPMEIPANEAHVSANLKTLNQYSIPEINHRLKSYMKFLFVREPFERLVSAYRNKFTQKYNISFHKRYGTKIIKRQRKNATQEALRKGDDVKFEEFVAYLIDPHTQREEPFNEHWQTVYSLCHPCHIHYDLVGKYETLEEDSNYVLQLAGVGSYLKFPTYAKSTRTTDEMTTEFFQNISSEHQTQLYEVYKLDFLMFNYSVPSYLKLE", "how_it_was_run": "as §1"}, "[4]": {"target": "T4, F8W8H5 and related entries (UniProt Q969Q5)", "T4 sequence (whole entry)": "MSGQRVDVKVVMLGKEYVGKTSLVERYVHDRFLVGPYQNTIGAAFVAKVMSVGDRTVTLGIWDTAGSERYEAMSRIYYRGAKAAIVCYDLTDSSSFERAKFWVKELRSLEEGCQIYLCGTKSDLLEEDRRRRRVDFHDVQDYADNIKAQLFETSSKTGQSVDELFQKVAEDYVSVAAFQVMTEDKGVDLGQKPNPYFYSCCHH", "how_it_was_run": "as §1"}}, "note": "± gives the standard deviation of the averaged measurements. Some of the results follow.", "data": [{"smiles": "Nc1nc2c(ncn2[C@@H]2O[C@H](COP(=O)(O)OP(=O)(O)OP(=O)(O)O)[C@@H](O)[C@H]2O)c(=O)[nH]1", "note": "[guanosine triphosphate]", "values": [{"measurement": "NP40-soluble protein abundance", "setting": "[1]; concentration: 1mM", "value": "1.07 ± 0.096"}, {"measurement": "NP40-soluble protein abundance", "setting": "[1]; concentration: 2mM", "value": "1.11 ± 0.19"}, {"measurement": "NP40-soluble protein abundance", "setting": "[1]; concentration: 4mM", "value": "1.13 ± 0.099"}, {"measurement": "NP40-soluble protein abundance", "setting": "[1]; concentration: 6mM", "value": "1.18 ± 0.15"}, {"measurement": "NP40-soluble protein abundance", "setting": "[1]; concentration: 8mM", "value": "1.19 ± 0.22"}, {"measurement": "NP40-soluble protein abundance", "setting": "[1]; concentration: 10mM", "value": "1.42 ± 0.2"}, {"measurement": "NP40-soluble protein abundance", "setting": "[2]; concentration: 0.1mM", "value": "0.905 ± 0.044"}, {"measurement": "NP40-soluble protein abundance", "setting": "[2]; concentration: 0.5mM", "value": "0.912 ± 0.043"}, {"measurement": "NP40-soluble protein abundance", "setting": "[2]; concentration: 1mM", "value": "0.905 ± 0.042"}, {"measurement": "NP40-soluble protein abundance", "setting": "[2]; concentration: 2mM", "value": "0.885 ± 0.031"}, {"measurement": "NP40-soluble protein abundance", "setting": "[2]; concentration: 4mM", "value": "0.897 ± 0.062"}, {"measurement": "NP40-soluble protein abundance", "setting": "[2]; concentration: 6mM", "value": "0.877 ± 0.023"}, {"measurement": "NP40-soluble protein abundance", "setting": "[2]; concentration: 8mM", "value": "0.872 ± 0.056"}, {"measurement": "NP40-soluble protein abundance", "setting": "[2]; concentration: 10mM", "value": "0.875 ± 0.065"}, {"measurement": "NP40-soluble protein abundance", "setting": "[3]; concentration: 0.1mM", "value": "1.04 ± 0.06"}, {"measurement": "NP40-soluble protein abundance", "setting": "[3]; concentration: 0.5mM", "value": "0.992 ± 0.056"}, {"measurement": "NP40-soluble protein abundance", "setting": "[3]; concentration: 1mM", "value": "0.975 ± 0.035"}, {"measurement": "NP40-soluble protein abundance", "setting": "[3]; concentration: 2mM", "value": "0.988 ± 0.046"}, {"measurement": "NP40-soluble protein abundance", "setting": "[3]; concentration: 4mM", "value": "1.05 ± 0.033"}, {"measurement": "NP40-soluble protein abundance", "setting": "[3]; concentration: 6mM", "value": "0.987 ± 0.032"}, {"measurement": "NP40-soluble protein abundance", "setting": "[3]; concentration: 8mM", "value": "1.03 ± 0.03"}, {"measurement": "NP40-soluble protein abundance", "setting": "[3]; concentration: 10mM", "value": "1.05 ± 0.055"}, {"measurement": "NP40-soluble protein abundance", "setting": "[4]; concentration: 0.1mM", "value": "1.11 ± 0.077"}, {"measurement": "NP40-soluble protein abundance", "setting": "[4]; concentration: 0.5mM", "value": "1.05 ± 0.093"}, {"measurement": "NP40-soluble protein abundance", "setting": "[4]; concentration: 1mM", "value": "0.971 ± 0.11"}, {"measurement": "NP40-soluble protein abundance", "setting": "[4]; concentration: 2mM", "value": "0.984 ± 0.11"}, {"measurement": "NP40-soluble protein abundance", "setting": "[4]; concentration: 4mM", "value": "0.992 ± 0.073"}, {"measurement": "NP40-soluble protein abundance", "setting": "[4]; concentration: 6mM", "value": "0.946 ± 0.075"}, {"measurement": "NP40-soluble protein abundance", "setting": "[4]; concentration: 8mM", "value": "0.919 ± 0.047"}, {"measurement": "NP40-soluble protein abundance", "setting": "[4]; concentration: 10mM", "value": "0.896 ± 0.13"}]}]}
